PubChem BioAssay AID1259285, Sanger Institute – 2017
The whole screen tested 794 reagents; this is an unselected part. 20 of all reagents (2.5%) were called active. 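Calls rest on the drug-free arm alone and ignore synergy scores; viability ratios seem to be capped at 1.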 A number with no mark means an inactive call. Not all columns of the deposit are shown. Not given: the amount of reagent, the time to read-out.

Assay: 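Kinase knock-downs that reduce colorectal cancer cell viability or act with drugs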 (primary screen)
Cells: human HCC56 colorectal cancer cells
Reagents: siRNA pool against human genes
Conditions: DMSO vehicle, or anchor drug BYL719 at 1 µM, cetuximab at 5 µg/ml, or trametinib at 10 nM
Measurement: 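Viability as a ratio to non-targeting pool wells, averaged over replicates and turned into a robust z-score; synergy scores with BYL719, cetuximab or trametinib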
Direction: viability robust z-score, no drug: higher = more viable cells, weaker knock-down effect; viability vs non-targeting pool, no drug: higher = more viable cells
Hit rule: 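Essential when the drug-free viability robust z-score falls below -3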
Calls: active = essential without drug; inactive = no change without drug

For NTRK1 (neurotrophic receptor tyrosine kinase 1), what was measured?
viability robust z-score, no drug: -0.189; viability vs non-targeting pool, no drug: 0.944

With EPHA3 (EPH receptor A3), what was measured?
viability robust z-score, no drug: -2.61; viability vs non-targeting pool, no drug: 0.736

With BLK (BLK proto-oncogene, Src family tyrosine kinase), how do the results read?
viability robust z-score, no drug: 0.458; viability vs non-targeting pool, no drug: 1

With CAMK2N1 (calcium/calmodulin dependent protein kinase II inhibitor 1), how do the results read?
viability robust z-score, no drug: -1.14; viability vs non-targeting pool, no drug: 0.863

For CDKL1 (cyclin dependent kinase like 1), what does the deposit list?
viability robust z-score, no drug: 0.0648; viability vs non-targeting pool, no drug: 0.966

With CDK12 (cyclin dependent kinase 12), how do the results read?
viability robust z-score, no drug: 0.458; viability vs non-targeting pool, no drug: 1

For PNCK (pregnancy up-regulated nonubiquitous CaM kinase), what was measured?
viability robust z-score, no drug: 0.458; viability vs non-targeting pool, no drug: 1

What did the screen give for SRMS?
viability robust z-score, no drug: 0.458; viability vs non-targeting pool, no drug: 1

With DGKD (diacylglycerol kinase delta), what does the deposit list?
viability robust z-score, no drug: -0.58; viability vs non-targeting pool, no drug: 0.911

With CDK20 (cyclin dependent kinase 20), what was measured?
viability robust z-score, no drug: 0.0271; viability vs non-targeting pool, no drug: 0.963

Taken from above:
For “viability robust z-score, no drug”, PNCK (pregnancy up-regulated nonubiquitous CaM kinase) shows 0.458
Under “viability robust z-score, no drug”, BLK (BLK proto-oncogene, Src family tyrosine kinase) is entered as 0.458
Entry for CDKL1 (cyclin dependent kinase like 1) under “viability robust z-score, no drug”: 0.0648

The listing continues.
Which result is listed for ZC3H11A (zinc finger CCCH-type containing 11A)?
viability robust z-score, no drug: 0.458; viability vs non-targeting pool, no drug: 1

What did the screen give for CDK5 (cyclin dependent kinase 5)?
viability robust z-score, no drug: 0.458; viability vs non-targeting pool, no drug: 1

With EIF2AK3 (eukaryotic translation initiation factor 2 alpha kinase 3), what was measured?
viability robust z-score, no drug: 0.458; viability vs non-targeting pool, no drug: 1

With NUCKS1, what was measured?
viability robust z-score, no drug: 0.458; viability vs non-targeting pool, no drug: 1

With TWF1 (twinfilin actin binding protein 1), what was measured?
viability robust z-score, no drug: 0.458; viability vs non-targeting pool, no drug: 1

How did the screen score PTK7 (protein tyrosine kinase 7 (inactive))?
viability robust z-score, no drug: -0.755; viability vs non-targeting pool, no drug: 0.896

What is on record for LATS1 (large tumor suppressor kinase 1)?
viability robust z-score, no drug: 0.458; viability vs non-targeting pool, no drug: 1

With GK (glycerol kinase), what was measured?
viability robust z-score, no drug: 0.458; viability vs non-targeting pool, no drug: 1

What did the screen give for FRK (fyn related Src family tyrosine kinase)?
viability robust z-score, no drug: 0.458; viability vs non-targeting pool, no drug: 1
